According to PubChem BioAssay AID624297 (National Center for Advancing Translational Sciences (NCATS), 2012):
Values joined by “and” are separate entries in the source; they are usually repeats but may differ in a detail not shown here. Equal entries are not always repeated. In all, about 340,000 compounds went through this assay and about 6,200 (1.8%) were called active. Inconclusive results, whose numbers are uncertain, are shown with a selection of clear calls. Calls follow the shape of the dose curve; as a rule, active = well fitted activation curve with a large enough effect; inconclusive = small, poorly fitted or top-dose-only effect; inactive = no such curve, though single readings can be large or run the other way. Where the call is inconclusive, the potency comes from a doubtful curve fit.
Potency is read from the fitted curve at half-maximal effect.

Test: A quantitative high throughput screen for small molecules that induce DNA re-replication in SW480 colon adenocarcinoma cells. Also: nearly all actives have a fitted effect of over 55% in size. As to re-replication activation: % of control where 0% means no effect.
Settings: Hoechst DNA content imaging, 48 h; re-replication activation: at 46.1 µM (top of the series) unless noted
In short: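 Treated cells incubate 48 hr (37 C, 5% CO2), are stained 40 min with Hoechst, and nuclear fluorescence is enumerated; a rise in nuclei with high DNA signal marks re-replication.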
With Cc1ccc(-c2nnc(Sc3nc4ccccc4o3)c3ccccc23)cc1 the Potency was inconclusive: 18.4 µM [activator, partial curve, poor fit].
For CCc1cc(C(=O)N/N=C/c2ccc(OC)cc2)c2ccccc2n1, the Potency was inconclusive: 11.6 µM [activator, partial curve].
With COc1cccc(CNCCc2c[nH]c3ccccc23)c1OCc1ccccc1 the Potency was inconclusive: 29.1 µM [activator, single point].
In the case of COC(=O)c1cccc(Nc2c3c(nc4ccccc24)CCC3)c1, the Potency is reported as inconclusive: 18.4 µM [activator, single point].
With CN1N=C2c3ccccc3CCC2C1c1ccc(Cl)cc1 (stereo not given) the Potency was inconclusive: 18.4 µM [activator, single point].
For N#CC(c1ccc(Cl)cc1)c1ccc(Cl)nn1 (stereo not given), the Potency was “inactive”.
In the case of CCc1nnc(NC(=O)CSc2nnc(COc3ccc(C)cc3)n2-c2ccccc2)s1, the Potency is reported as inconclusive: 29.1 µM [activator, single point].
With CC(C)c1ccc(NC2=CC(=O)CC(C)(C)C2)cc1 the Potency was “inactive”.
In the case of C=CCNC(=O)CSc1nnc(C(CC)N(C)C)n1C1CCCCC1 (stereo not given), the Potency is reported as inconclusive: 29.1 µM [activator, single point].
In the case of CC1CC(C(=O)Nc2ccccc2)C(=O)O1 (stereo not given), the Potency is reported as inconclusive: 6.51 µM [activator, partial curve, poor fit].
With O=C(Cc1ccccc1Cl)N1CCN(c2ncccn2)CC1 the Potency was inconclusive: 6.51 µM [activator, single point].
For CC(NS(=O)(=O)OCC(Cl)(Cl)Cl)c1ccc(Br)cc1 (stereo not given), the Potency was “inactive”.
With Cc1cc(Sc2nnc(/N=C/N(C)C)s2)c2ccccc2n1 the Potency was inconclusive: 9.2 µM [activator, single point].
In the case of CCCCN(CC)Cc1c(O)ccc2c3c(c(=O)oc12)CCC3, the Potency is reported as “inactive”.
With O=C(CCn1nc(-c2ccccc2)ccc1=O)N1CCN(c2ccccc2)CC1 the Potency was inconclusive: 18.4 µM [activator, partial curve, poor fit].
With COc1ccc(CNC(=O)COC(=O)c2ccc(OCC3CCCO3)cc2)cc1 (stereo not given) the Potency was inconclusive: 20.6 µM [activator, single point].
In the case of Fc1ccccc1CNc1ccc(Cl)c(Cl)c1, the Potency is reported as inconclusive: 32.6 µM [activator, partial curve, poor fit].
In the case of S=P(N1CC1)(N1CC1)N1CC1, the Potency is reported as active: 2.06 µM.
In the case of CCn1c(O)c(/C=C/C=C/C=Nc2ccccc2)sc1=S, the Potency is reported as “inactive”.
With O=C1CC(/C=C/c2cccnc2)=Nc2ccccc2N1 the Potency was inconclusive: 29.1 µM [activator, single point].
For Cc1nonc1OCCN1CCN(c2ccc([N+](=O)[O-])cc2)CC1, the Potency was “inactive”.
For Clc1ccc(N=c2ssnc2Cl)nc1, the Potency was inconclusive: 29.1 µM [activator, single point].
In the case of COc1ccc(Nc2nc(N3CCCC3)nc3ccccc23)c(OC)c1, the Potency is reported as inconclusive: 23.1 µM [activator, single point].
In the case of O=C(c1ccc2oc(CCCc3ccccc3)nc2c1)N1CCCC1, the Potency is reported as “inactive”.
For CC(=O)Oc1ccc(/C=N/NS(=O)(=O)c2ccc(C)cc2)c(OC(C)=O)c1, the Potency was inconclusive: 4.61 µM [activator, single point].
With COc1cccc(C2=NOC(C(=O)Nc3cc(C)nn3-c3ccccc3)C2)c1OC (stereo not given) the Potency was “inactive”.
In the case of O=C(NCc1cccnc1)/C(=C\c1ccc(-c2ccc(Cl)c(Cl)c2)o1)S(=O)(=O)c1ccccc1, the Potency is reported as inconclusive: 29.1 µM [activator, single point].
With Cc1n[nH]c(=O)nc1N/N=C/c1cccs1 the Potency was inconclusive: 18.4 µM [activator, single point].
With COc1cc2c(-c3ccc(O)cc3)nc3c(c(C)nn3-c3ccccc3)c2cc1OC the Potency was inconclusive: 29.1 µM [activator, single point].
In the case of CCc1ccc(N2CN(CCc3ccccc3)CNC2=S)cc1, the Potency is reported as “inactive”.
For N#Cc1c(-c2ccc3c(c2)OCO3)ccn2nc(-c3cccc(C(F)(F)F)c3)nc12, the Potency was inconclusive: 6.51 µM [activator, single point].
In the case of Oc1ccc(Cl)cc1C=NCCc1ccccc1, the Potency is reported as “inactive”.
In the case of CCCOc1ccc2oc(=O)c3c(c2c1)CCCN3C(=O)CN(C)Cc1ccccc1, the Potency is reported as “inactive”.
In the case of COc1ccc(NC(=O)c2ccc3c(=O)n(-c4ccc(OC)cc4OC)c(=S)[nH]c3c2)cc1, the Potency is reported as “inactive”.
For CCC(C(=O)c1ccc(O)cc1)c1ccccc1 (stereo not given), the Potency was inconclusive: 14.6 µM [activator, partial curve, poor fit].
With COc1ccc(C(O)Cc2nc3ccccc3n2C)cc1OC (stereo not given) the re-replication activation was inactive: -0.142% [at 9.22 µM].
In the case of COc1cccc(OC(=O)c2ccccc2)c1OC(=O)c1ccccc1, the Potency is reported as inconclusive: 29.1 µM [activator, single point].
For CC(=O)c1ccc(C)cc1OC(=O)c1cccc(F)c1, the re-replication activation was inconclusive: -23.4% [activator].
In the case of Cc1ccc(NC(=S)NC(=O)c2ccc(-c3ccccc3)cc2)cc1, the Potency is reported as inconclusive: 29.1 µM [activator, single point].
For CC1C/C(=N/Nc2nc3ccccc3[nH]2)CC(C)(C)C1 (stereo not given), the Potency was inconclusive: 20.6 µM [activator, single point].
In the case of Cc1cccc(C(=O)N2CCc3cc(-c4nc(NC(=O)CN5CCCC5)sc4C)ccc32)c1, the Potency is reported as inconclusive: 20.6 µM [activator, single point].
In the case of Oc1ccc2ccccc2c1C=NNc1ccccn1, the Potency is reported as active: 7.31 µM.
With Cc1cc(C)n(-c2nnc(Cl)c3ccccc23)n1 the Potency was inconclusive: 29.1 µM [activator, single point].
With COc1cccc(-c2nnc(-c3ccco3)o2)c1 the Potency was inconclusive: 0.0058 µM [activator, full curve, poor fit].
For CCN(c1ccccc1)S(=O)(=O)c1ccc(C(=O)NC2CCN(Cc3ccccc3)CC2)cc1, the Potency was inconclusive: 29.1 µM [activator, single point].
With CCOc1ccc(-n2c(SCC(=O)Nc3cc(C)on3)nnc2-c2c[nH]c3ccccc23)cc1 the Potency was inconclusive: 22.4 µM [activator, partial curve, poor fit].
With CC1CCCCN1S(=O)(=O)c1ccc(C(=O)Nc2nnc(-c3ccccn3)o2)cc1 (stereo not given) the Potency was inconclusive: 20.6 µM [activator, single point].
In the case of C=CCn1c(SCc2c(C)noc2C)nc2sc(C)c(C)c2c1=O, the Potency is reported as inconclusive: 29.1 µM [activator, single point].
With O=C(NNc1nc(-c2ccccc2)c2cc(Br)ccc2n1)c1ccc(S(=O)(=O)N2CCOCC2)cc1 the Potency was inconclusive: 32.6 µM [activator, partial curve, poor fit].
For C/C(CC(=O)Nc1ccc(Cl)cn1)=N\NC(=O)Cc1cccs1, the re-replication activation was inactive: 3.09% [at 9.22 µM].
For C=CCN1C(=O)C(C)(C)N(C(C)=O)c2ccccc21, the Potency was inconclusive: 29.1 µM [activator, partial curve, poor fit] and inconclusive: 1.84 µM [activator, single point].
In the case of CCCC(C(=O)NCCC(C)C)N(Cc1ccccc1Cl)C(=O)c1snc(C(N)=O)c1N (stereo not given), the Potency is reported as inconclusive: 6.51 µM [activator, single point].
With O=[N+]([O-])c1ccc(N/N=C/c2sc(N3CCOCC3)nc2-c2ccccc2)c(S(=O)(=O)Nc2ccc(Cl)cc2)c1 the Potency was active: 10.3 µM.
In the case of N#C/C(=C\c1c(N2CCCCC2)nc2ccccn2c1=O)S(=O)(=O)c1ccccc1, the Potency is reported as “inactive”.
In the case of COc1ccc(/C(O)=C/c2nc3ccccc3n(-c3ccccc3)c2=O)cc1, the Potency is reported as inconclusive: 4.11 µM [activator, full curve].
With Cc1ccc2nc(/C(C#N)=C\c3ccc([N+](=O)[O-])o3)[nH]c2c1 the Potency was inconclusive: 7.31 µM [activator, single point].
In the case of CC(=N\NC(=O)c1ccc([N+](=O)[O-])cc1)/C(=N/O)C(=O)Nc1ccccc1, the Potency is reported as inconclusive: 29.1 µM [activator, partial curve, poor fit].
In the case of C=C(C)C(=O)Oc1ccc(N2C(=O)CCC2=O)cc1, the Potency is reported as “inactive”.
For O=C(c1ccccn1)C1CCCN(Cc2nc(Cc3cccc(F)c3)no2)C1 (stereo not given), the Potency was inconclusive: 29.1 µM [activator, single point].
With COc1ccc(/C(N)=N/OC(=O)c2cccs2)cc1 the Potency was “inactive”.
For Cc1occc1C(=O)N/N=C/c1ccc(OCc2ccccc2)cc1, the Potency was “inactive”.
In the case of O=C(C1CCN(S(=O)(=O)c2cccs2)CC1)N1CCCCC1, the Potency is reported as “inactive”.
With O=C(CCCCCCN1C(=O)c2ccccc2C1=O)Nc1nccs1 the re-replication activation was inactive: -2.73% [at 9.22 µM].
In the case of c1cn2c(Nc3ccc4c(c3)OCCO4)c(-c3ccc(N4CCOCC4)cc3)nc2cn1, the Potency is reported as “inactive”.
In the case of COc1ccc(C2C3=C(CC(C)(C)CC3=O)Oc3ncn4nc(-c5ccccc5)nc4c32)cc1 (stereo not given), the Potency is reported as “inactive”.
With CCN(CC(=O)NC(C)(C)C)C(=O)CN1c2cccc3cccc(c23)S1(=O)=O the Potency was inconclusive: 35.5 µM [activator, partial curve, poor fit].
For Cc1cc(C)n(C(=O)c2c([N+](=O)[O-])c(C)nn2C)n1, the Potency was “inactive”.
In the case of O=C(/C=C/c1ccccc1[N+](=O)[O-])NCc1ccncc1, the Potency is reported as inconclusive: 3.26 µM [activator, full curve, poor fit].
In the case of Cc1cccc(C)c1N(CC(=O)N1CCN(c2ccccc2F)CC1)S(C)(=O)=O, the Potency is reported as “inactive”.
For CN(C)S(=O)(=O)c1cccc(-c2nn(-c3ccccc3)cc2/C=C(\C#N)c2nc3ccccc3[nH]2)c1, the Potency was inconclusive: 2.91 µM [activator, full curve, poor fit].
